Results from PubChem BioAssay AID256 (DTP/NCI, 2004).
The list shows only some results of the screen, not a fair sample: it gathers some chemical classes. Not every dose and run of a compound is shown. T/C is the treated group as % of the vehicle group. Where survival is the endpoint, this PubChem deposit counts one and a half times the control or more as active, and values a quarter to a half above the control carry no call in these data; other NCI protocols may use other cut-offs. Schedule codes are those of the source, taken here to give the interval after Q, in days (D) or hours (H), and the number of doses after X. Some T/C values are marked as having no survivor count here; that says nothing about deaths at the dose. Some entries were tested several times; their values stand side by side, smallest first.

Tested on: CD2F1 mice, L1210 leukemia ip, survival T/C
Assay: NCI In Vivo Anticancer Drug Screen. Data for tumor model L1210 Leukemia (intraperitoneal) in CD2F1 (CDF1) mice
Settings: higher T/C = longer survival
Outline: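 Read-out first: treated-group measurement over vehicle-control measurement, expressed as a ratio. Animals bore a transplanted tumor line and were dosed with compound or vehicle.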

[1] = T/C endpoint: mean survival time, dose: 25.0 mg/kg/injection, schedule: Q01DX009 (ip), vehicle: saline with Tween-80
[2] = T/C endpoint: mean survival time, dose: 50.0 mg/kg/injection, schedule: Q01DX009 (ip), vehicle: saline with Tween-80
[3] = T/C endpoint: mean survival time, dose: 100.0 mg/kg/injection, schedule: Q04DX003 (ip), vehicle: saline with Tween-80

BrCCN(CCBr)c1ccc2c(c1)Cc1ccccc1-2
T/C (T/C endpoint: mean survival time, dose: 3.0 mg/kg/injection, schedule: Q01DX009 (ip), vehicle: saline with Tween-80): 108 % of control [survivor count not shown] | T/C (T/C endpoint: mean survival time, dose: 3.13 mg/kg/injection, schedule: Q01DX009 (ip), vehicle: saline with Tween-80): 121 % of control [survivor count not shown] | T/C (T/C endpoint: mean survival time, dose: 6.0 mg/kg/injection, schedule: Q01DX009 (ip), vehicle: saline with Tween-80): 116 % of control [survivor count not shown] | T/C (T/C endpoint: mean survival time, dose: 6.25 mg/kg/injection, schedule: Q01DX009 (ip), vehicle: saline with Tween-80): 120 % of control [survivor count not shown] | T/C (T/C endpoint: mean survival time, dose: 12.0 mg/kg/injection, schedule: Q01DX009 (ip), vehicle: saline with Tween-80): 130 % of control [survivor count not shown] | T/C (T/C endpoint: mean survival time, dose: 12.5 mg/kg/injection, schedule: Q01DX009 (ip), vehicle: saline with Tween-80): 128 [survivor count not shown] and 146 % of control [survivor count not shown] | T/C (T/C endpoint: mean survival time, dose: 24.0 mg/kg/injection, schedule: Q01DX009 (ip), vehicle: saline with Tween-80): 132 % of control [survivor count not shown] | T/C [1]: 135 [survivor count not shown] and 151 % of control [survivor count not shown] | T/C (T/C endpoint: mean survival time, dose: 48.0 mg/kg/injection, schedule: Q01DX009 (ip), vehicle: saline with Tween-80): 130 % of control [survivor count not shown] | T/C [2]: 116 % of control [survivor count not shown] | T/C (T/C endpoint: mean survival time, dose: 100.0 mg/kg/injection, schedule: Q01DX009 (ip), vehicle: saline with Tween-80): 97 [survivor count not shown] and 108 % of control [survivor count not shown] | T/C [3]: 136 % of control [survivor count not shown] | T/C (T/C endpoint: mean survival time, dose: 200.0 mg/kg/injection, schedule: Q04DX003 (ip), vehicle: saline with Tween-80): 144 % of control [survivor count not shown] | T/C (T/C endpoint: mean survival time, dose: 400.0 mg/kg/injection, schedule: Q04DX003 (ip), vehicle: saline with Tween-80): 113 % of control [survivor count not shown]

O=C(O)CN(CCCl)CCCl
T/C (T/C endpoint: mean survival time, dose: 2.5 mg/kg/injection, schedule: Q01DX007 (ip), vehicle: saline): 120 % of control [survivor count not shown] | T/C (T/C endpoint: mean survival time, dose: 2.5 mg/kg/injection, schedule: Q01DX009 (ip), vehicle: saline): 124 % of control [survivor count not shown] | T/C (T/C endpoint: mean survival time, dose: 2.5 mg/kg/injection, schedule: Q03DX003 (ip), vehicle: saline): 122 % of control [survivor count not shown] | T/C (T/C endpoint: mean survival time, dose: 2.5 mg/kg/injection, schedule: Q04DX003 (ip), vehicle: saline): 128 % of control [survivor count not shown] | T/C (T/C endpoint: mean survival time, dose: 5.0 mg/kg/injection, schedule: Q01DX007 (ip), vehicle: saline): 102 % of control [survivor count not shown] | T/C (T/C endpoint: mean survival time, dose: 5.0 mg/kg/injection, schedule: Q01DX009 (ip), vehicle: saline): 112 % of control [survivor count not shown] | T/C (T/C endpoint: mean survival time, dose: 5.0 mg/kg/injection, schedule: Q03DX003 (ip), vehicle: saline): 136 % of control [survivor count not shown] | T/C (T/C endpoint: mean survival time, dose: 5.0 mg/kg/injection, schedule: Q04DX003 (ip), vehicle: saline): 132 % of control [survivor count not shown] | T/C (T/C endpoint: mean survival time, dose: 10.0 mg/kg/injection, schedule: Q03DX003 (ip), vehicle: saline): 128 % of control [survivor count not shown] | T/C (T/C endpoint: mean survival time, dose: 10.0 mg/kg/injection, schedule: Q04DX003 (ip), vehicle: saline): 110 % of control [survivor count not shown] | T/C (T/C endpoint: median survival time, dose: 0.63 mg/kg/injection, schedule: Q01DX009 (ip), vehicle: saline): 111 [survivor count not shown] and 135 % of control [survivor count not shown] | T/C (T/C endpoint: median survival time, dose: 1.25 mg/kg/injection, schedule: Q01DX009 (ip), vehicle: saline): 128 [survivor count not shown] and 133 % of control [survivor count not shown] | T/C (T/C endpoint: median survival time, dose: 2.5 mg/kg/injection, schedule: Q01DX009 (ip), vehicle: saline): 144 [survivor count not shown] and 157 % of control [survivor count not shown] | T/C (T/C endpoint: median survival time, dose: 5.0 mg/kg/injection, schedule: Q01DX009 (ip), vehicle: saline): 164 [survivor count not shown] and 166 % of control [survivor count not shown]

O=NN(CCSCCCl)C(=O)NC1CCCCC1
T/C (T/C endpoint: mean survival time, dose: 4.0 mg/kg/injection, schedule: Q01DX001 (ip), vehicle: other): 107 % of control [survivor count not shown] | T/C (T/C endpoint: mean survival time, dose: 8.0 mg/kg/injection, schedule: Q01DX001 (ip), vehicle: other): 113 % of control [survivor count not shown] | T/C (T/C endpoint: mean survival time, dose: 16.0 mg/kg/injection, schedule: Q01DX001 (ip), vehicle: other): 128 % of control [survivor count not shown] | T/C (T/C endpoint: mean survival time, dose: 32.0 mg/kg/injection, schedule: Q01DX001 (ip), vehicle: other): 142 % of control [survivor count not shown] | T/C (T/C endpoint: median survival time, dose: 3.12 mg/kg/injection, schedule: Q01DX009 (ip), vehicle: saline with Tween-80): 113 % of control | T/C (T/C endpoint: median survival time, dose: 6.25 mg/kg/injection, schedule: Q01DX009 (ip), vehicle: saline with Tween-80): 118 % of control | T/C (T/C endpoint: median survival time, dose: 12.5 mg/kg/injection, schedule: Q01DX009 (ip), vehicle: saline with Tween-80): 121 % of control | T/C (T/C endpoint: median survival time, dose: 25.0 mg/kg/injection, schedule: Q01DX009 (ip), vehicle: saline with Tween-80): 166 % of control

S=P(Cl)(Cl)Cl
T/C [1]: 95 % of control [survivor count not shown] | T/C [2]: 98 % of control [survivor count not shown] | T/C [3]: 102 % of control [survivor count not shown]
